PubChem BioAssay AID2551 (National Center for Advancing Translational Sciences (NCATS), 2010)
Among all 310,000 compounds or so, about 17,000 (5.5%) were called active. Inconclusive means that the source gave no clear call. Such entries were picked first, then a sample of the others. Calls come from the whole dose curve; as a rule, active = well fitted inhibition curve with a large enough effect; inconclusive = small, poorly fitted or top-dose-only effect, or effect the other way; inactive = no such curve, though single readings can be large or run the other way. A potency beside an inconclusive call is a rough fit, not a confirmed value.

Chains of the proteins cited; added tags and fusions are not shown. Lines headed by an entry give the natural chain unless they say otherwise; changes in a name come on top.
UniProt P51450: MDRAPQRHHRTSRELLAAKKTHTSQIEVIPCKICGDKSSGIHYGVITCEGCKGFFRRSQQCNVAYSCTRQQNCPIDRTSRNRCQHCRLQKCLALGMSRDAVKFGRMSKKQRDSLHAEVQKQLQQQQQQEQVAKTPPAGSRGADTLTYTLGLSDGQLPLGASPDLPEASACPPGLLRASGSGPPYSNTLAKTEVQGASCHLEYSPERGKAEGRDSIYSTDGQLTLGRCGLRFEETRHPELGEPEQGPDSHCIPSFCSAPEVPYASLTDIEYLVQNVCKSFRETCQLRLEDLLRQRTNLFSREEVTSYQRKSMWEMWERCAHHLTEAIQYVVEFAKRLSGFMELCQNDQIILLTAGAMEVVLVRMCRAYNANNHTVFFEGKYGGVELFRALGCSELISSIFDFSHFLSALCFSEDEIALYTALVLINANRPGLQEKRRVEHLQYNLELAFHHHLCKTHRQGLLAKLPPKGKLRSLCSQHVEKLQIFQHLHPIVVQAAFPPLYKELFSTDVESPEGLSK

These molecules were tested against Nuclear receptor ROR-gamma (Mus musculus) (UniProt P51450) (assay: qHTS for inhibitors of ROR gamma transcriptional activity). Conditions: Drosophila S2 Gal4-RORgamma UAS-luciferase reporter, 20 h; series mostly up to 53.6 µM.
Outline: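 Luciferase reporter read in Schneider cells carrying Gal4-RORγ (mouse) and UAS-Photinus luciferase; cells given compound 1 h before 700 uM copper sulfate induction, then incubated 20 h at ambient temperature.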
Note: nearly all actives have a fitted effect of over 60% in size.
Potency is the fitted concentration of half-maximal effect.

Potency, active:
O=C(CNC(=O)c1ccccc1Cl)c1ccccc1 8.91 µM, CC1C/C(=C/c2ccncc2)C(=O)/C(=C/c2ccncc2)C1 (stereo not given) 7.08 µM, C=CCOc1ccc(CNn2cn[nH]c2=S)cc1OCC 11.2 µM, Cc1cc(=O)[nH]c(N/N=C2/CCCC/C2=C\c2ccccc2)n1 6.31 µM, Cc1ccc(O)c(N=Nc2ccccc2)n1 1 µM, CCCn1c(=S)[nH]c2cc(C(=O)N3CCN(C4CCCCC4)CC3)ccc2c1=O 10 µM, CNC(=S)Nc1ccc(Br)cc1 35.5 µM, CCOC(=O)C1=C(Cc2ccc(OC)cc2)C(=O)c2ccccc2C1=O 10 µM, CCOC(=O)/C(=N/Nc1ccc(OC)cc1)Sc1nnc(CCc2ccccc2)n1-c1ccccc1 7.08 µM, COc1ccccc1NC(=O)C(=O)N1N=C(C(C)C)CC1(O)C(F)(F)F (stereo not given) 10 µM, Cc1cc(C2=NNC(=NC3CC3)SC2)c(C)n1-c1ccccc1F 1.12 µM, CCOc1ccccc1N=Nc1c(C)[nH]n(C(N)=S)c1=O 0.447 µM, CCN(CC)C1CC(=O)N(c2ccc(Br)cc2)C1=O (stereo not given) 12.6 µM, Cc1cc(C)nc(SCC(=O)Nc2nc(-c3ccccc3)c(-c3ccccc3)o2)n1 11.2 µM, COc1ccc(N2CCN(Cc3nc4ccccc4n3C)CC2)cc1 12.6 µM, CCCCSc1nc(C)cc(SCC(=O)N/N=C/c2cccc(OC)c2O)n1 0.282 µM, CC(C)C(=O)NC(c1ccccc1)c1cc([N+](=O)[O-])c2cccnc2c1O (stereo not given) 6.31 µM, COc1ccc(CCN(C)C(=S)NC(=O)c2ccc(F)cc2Cl)cc1OC 1.58 µM

Potency, inconclusive:
O=C(NC(C(=O)N/N=C/c1cccc2ccccc12)c1n[nH]c(=O)c2ccccc12)c1ccccc1 (stereo not given) 7.08 µM [activator, partial curve], O=S1(=O)CCC(NC(=S)SCc2ccccc2Br)C1 (stereo not given) 20 µM [inhibitor, single point], COc1cc(/C=C(/C#N)c2ccc(F)cc2)ccc1Oc1ccc([N+](=O)[O-])cn1 11.2 µM [activator, partial curve], COC(=O)Cc1[nH]n(-c2nc3ccccc3s2)c(=O)c1C(C)=O 17.8 µM [inhibitor, single point], CC(=O)Oc1ccc(OC(C)=O)c(SCCCCCCl)c1 15.8 µM [inhibitor, single point], Cc1c(NC(=S)N/N=C\c2ccccc2O)c(=O)n(-c2ccccc2)n1C 5.62 µM [inhibitor, partial curve, poor fit], O=C(Cn1nnc(-c2ccc(N3CCOCC3)cc2)n1)N1CCOCC1 8.91 µM [inhibitor, partial curve], COc1ccccc1NS(=O)(=O)c1cc(NC(=S)NCC2CCCO2)ccc1C (stereo not given) 11.2 µM [inhibitor, single point], Cc1ccc(NS(=O)(=O)c2ccc(N3CCN(c4ccc(O)cc4)CC3)c([N+](=O)[O-])c2)c(C)c1 14.1 µM [activator, partial curve], O=C(c1ccccc1SCc1ccc(F)cc1)N1CCOCC1 31.6 µM [activator, single point], CCCCc1nc2cc(C(=O)N3CCN(c4nc(C)cnc4C)CC3)ccc2o1 8.91 µM [activator, partial curve, poor fit], COc1ccc2c(c1)OC/C(=C\c1ccc(OC)c(O)c1)C2=O 35.5 µM [inhibitor, single point], O=C(Nc1cccc(Cl)c1)OCCN1CCN(Cc2ccccc2)CCC1=O 20 µM [activator, partial curve], CCc1ccc(C(=O)NCc2cccs2)s1 0.794 µM [activator, full curve], Cc1sc(NC(=O)c2ccco2)nc1-c1ccccc1 1.12 µM [activator, partial curve], CN1CCN(S(=O)(=O)c2ccc(-c3ccc(Cl)cc3)cc2)CC1 0.794 µM [inhibitor, single point], CCOc1cccc2c1OC1(C)CC2NC(=O)N1c1ccc(OC)cc1 (stereo not given) 35.5 µM [inhibitor, single point], O=C(Nc1nccs1)c1ccc(S(=O)(=O)N2CCCCC2)cc1 25.1 µM [inhibitor, single point], N=C1C(c2nc3ccccc3s2)=C(O)CN1Cc1ccco1 0.447 µM [activator, full curve, poor fit], Cc1ccc(S(=O)(=O)NCc2ccc3c(c2)cc(C)n3C)cc1 31.6 µM [activator, single point], O=C(NCCc1nnc2ccccn12)c1cccs1 6.31 µM [activator, single point], O=[N+]([O-])c1ccc(N2CCOCC2)cc1SCc1ccco1 22.4 µM [activator, single point], C=CCn1c(SCC(=O)Nc2cccnc2Cl)nnc1-c1ccc(Cl)cc1 14.1 µM [activator, partial curve], Cc1nc(CC(=O)c2ccc(O)c(C)c2O)cs1 31.6 µM [activator, single point], CCN(CC)S(=O)(=O)c1ccc(N2CCOCC2)c(NC(=O)COc2ccc(C#N)cc2)c1 11.2 µM [activator, partial curve, poor fit], Cc1ccc(S(=O)(=O)NN2C(=O)c3ccccc3NC2(C)C)cc1 7.08 µM [activator, partial curve], Cc1cc(NC(=O)C(=O)NCCN2CCN(C(=O)c3cccs3)CC2)ccc1Br 11.2 µM [activator, partial curve, poor fit], Cc1ccc(C)c(OCCCC(=O)Nc2nccs2)c1 22.4 µM [inhibitor, single point], COc1ccccc1N1CCN(C(CNC(=O)c2ccc3c(c2)OCO3)c2cccnc2)CC1 (stereo not given) 10 µM [activator, partial curve], Cc1cc(Cl)nc2ccc(Cc3ccc4nc(Cl)cc(C)c4c3)cc12 2 µM [inhibitor, full curve], CCCc1cc(C(=O)Nc2ccc(Cl)cn2)cs1 35.5 µM [inhibitor, single point], CCOC(=O)c1ccc(NC(=S)N2CCCC2)cc1 12.6 µM [inhibitor, single point], O=[N+]([O-])c1cc(C(F)(F)F)cc([N+](=O)[O-])c1NCCNC(=S)Nc1ccc(Cl)c(Cl)c1 20 µM [activator, single point], c1ccc(-c2csc(N3CCOCC3)n2)cc1 7.08 µM [activator, partial curve], COc1cccc(/C=N/Nc2ncnc(N)c2[N+](=O)[O-])c1OC 3.98 µM [inhibitor, single point], CC(C)NC(=O)C1CCN(C2CCN(C(=O)c3scc4c3CCCC4)CC2)CC1 35.5 µM [inhibitor, single point]

Potency, inactive:
O=C(CCC(=O)N1CCSc2ccccc21)NCc1cccc(Cl)c1, CSc1cccc(NC(=O)C2CCN(C(=O)c3ccccc3C)CC2)c1, CN1CCN(CC(O)COc2ccc(Cl)cc2)CC1 (stereo not given), O=S(=O)(Nc1ccc(N=Nc2ccc(O)c3ccccc23)cc1)c1ccccc1, COc1ccc(NC(=S)c2ccncc2)cc1, CC1Cc2ccccc2N1C(=O)CSc1ccccc1 (stereo not given), COc1ccc(C(=O)CCNc2cccc(Cl)c2)cc1, COc1ccc(/C=N/NC(=O)c2c(C)nc3ccc(Cl)cn23)cc1OC, COC(=O)CN1C(=O)COc2ccc(S(=O)(=O)NCc3ccc(F)cc3)cc21, Cc1cc(-n2c(SCC(=O)Nc3ccc(F)c(F)c3)nc3n[nH]c(C)c3c2=N)ccc1Cl, O=C(Nc1ccc(-c2n[nH]c(=S)o2)cc1)c1ccccc1, Cc1nn(Cc2ccccc2)c(C)c1NS(=O)(=O)c1ccccc1, CN(C(=O)CCN1C(=O)S/C(=C\c2ccccc2)C1=O)C1CCS(=O)(=O)C1 (stereo not given), CC(=O)Oc1ccc(/C=N/NC2=NS(=O)(=O)c3ccccc32)cc1, CC(C)c1ccc(-c2c(C#N)c(N)nc(SCC(=O)N3CCCCCC3)c2C#N)cc1, Cc1ccc(S(=O)(=O)CC(=O)Nc2cc(C)on2)cc1, Cc1ccc(C#N)cc1, NC(=O)C1CCN(CC(=O)Nc2ccccc2N2CCOCC2)CC1, CCCCCCCCCS(=O)(=O)N/N=C/c1cccc([N+](=O)[O-])c1, CCC(C)Oc1cccc(C(=O)Nc2ccccc2N2CCOCC2)c1 (stereo not given), COc1cccc(CNC(=O)C(NS(=O)(=O)c2ccc3c(c2)CCN3C(C)=O)C(C)C)c1 (stereo not given), O=C(NCc1ccc(N2CCCC2=O)cc1)c1cccc(Cl)c1, CCOc1c(Cl)cc(CNC(C)(C)CC(C)(C)C)cc1OC, CCOc1ccc(N(CC(=O)NC2CCCCC2C)S(=O)(=O)c2c(C)noc2C)cc1 (stereo not given), Cc1cc(NC(=O)C(C)C)ncc1NC(=O)c1ccccn1, Nc1ccccc1C(=O)NCc1ccccc1
